Assay results: PMC10653806
These are yes or no findings as the source states them, for the method shown. In cells and extracts the contact can be indirect. Tags and fused reporters may be left off the sequences shown.

The chains behind the UniProt entries cited, without tags or fusion partners.
UniProt P38432: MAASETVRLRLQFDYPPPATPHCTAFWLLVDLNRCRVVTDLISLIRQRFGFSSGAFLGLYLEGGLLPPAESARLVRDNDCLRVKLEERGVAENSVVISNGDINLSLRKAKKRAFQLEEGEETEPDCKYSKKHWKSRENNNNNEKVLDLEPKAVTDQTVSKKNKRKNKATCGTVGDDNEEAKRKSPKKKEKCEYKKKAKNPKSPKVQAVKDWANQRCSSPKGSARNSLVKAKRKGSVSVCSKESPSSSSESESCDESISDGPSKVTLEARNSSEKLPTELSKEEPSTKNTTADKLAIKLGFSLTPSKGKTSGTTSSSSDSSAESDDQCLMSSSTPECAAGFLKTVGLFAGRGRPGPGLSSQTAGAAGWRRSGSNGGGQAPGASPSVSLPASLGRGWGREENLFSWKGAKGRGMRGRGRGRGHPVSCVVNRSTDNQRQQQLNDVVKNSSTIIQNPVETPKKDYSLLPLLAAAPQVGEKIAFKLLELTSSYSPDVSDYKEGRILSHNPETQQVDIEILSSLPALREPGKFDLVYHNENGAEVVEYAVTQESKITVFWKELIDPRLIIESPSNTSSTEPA

T1: FLAG-tagged L4-33K (human adenovirus 5) (UniProt P24940)
T1 sequence: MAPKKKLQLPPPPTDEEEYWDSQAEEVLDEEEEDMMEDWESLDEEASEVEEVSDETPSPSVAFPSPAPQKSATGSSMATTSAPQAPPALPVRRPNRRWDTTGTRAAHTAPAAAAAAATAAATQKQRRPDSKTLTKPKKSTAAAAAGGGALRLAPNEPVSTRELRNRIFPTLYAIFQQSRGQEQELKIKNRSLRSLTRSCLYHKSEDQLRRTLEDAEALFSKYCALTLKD

B1: FLAG-tagged L4-33K (protein, UniProt P24940 1-229)
chain: T1 sequence

Experiments:
[1] = target: T1, FLAG-tagged L4-33K (human adenovirus 5); test: co-IP; lysates of 293T cells co-transfected with Myc-tagged p80-coilin and Flag-tagged 22K or 33K plasmids; […] Fab-Trap Agarose or Myc-Trap Agarose beads; Western blot with anti-myc or anti-FLAG
[2] = target: Myc-tagged human p80-coilin (human) (UniProt P38432); test: as above

Molecule	binding [1]	binding [2]
Myc-tagged human p80-coilin (from UniProt P38432 1-576)	no binding	
B1		no binding
